Experimental data taken from paper PMC4961226.
Results are given in words; binding and its absence hold for the method and conditions named. In cells and extracts the contact can be indirect. For part of these data: A result given as binding can be weak or reduced; the word gives no strength.

B1: PLCγ1-SH3-F1 (domain or fragment, UniProt P19174 790-851)
chain: PTFKCAVKALFDYKAQREDELTFIKSAIIQNVEKQEGGWWRGDYGGKKQLWFPSNYVEEMVN
B2: wild-type PLCγ1 (enzyme, UniProt P19174 1-1290)
chain: MAGAASPCANGCGPGAPSDAEVLHLCRSLEVGTVMTLFYSKKSQRPERKTFQVKLETRQITWSRGADKIEGAIDIREIKEIRPGKTSRDFDRYQEDPAFRPDQSHCFVILYGMEFRLKTLSLQATSEDEVNMWIKGLTWLMEDTLQAPTPLQIERWLRKQFYSVDRNREDRISAKDLKNMLSQVNYRVPNMRFLRERLTDLEQRSGDITYGQFAQLYRSLMYSAQKTMDLPFLEASTLRAGERPELCRVSLPEFQQFLLDYQGELWAVDRLQVQEFMLSFLRDPLREIEEPYFFLDEFVTFLFSKENSVWNSQLDAVCPDTMNNPLSHYWISSSHNTYLTGDQFSSESSLEAYARCLRMGCRCIELDCWDGPDGMPVIYHGHTLTTKIKFSDVLHTIKEHAFVASEYPVILSIEDHCSIAQQRNMAQYFKKVLGDTLLTKPVEISADGLPSPNQLKRKILIKHKKLAEGSAYEEVPTSMMYSENDISNSIKNGILYLEDPVNHEWYPHYFVLTSSKIYYSEETSSDQGNEDEEEPKEVSSSTELHSNEKWFHGKLGAGRDGRHIAERLLTEYCIETGAPDGSFLVRESETFVGDYTLSFWRNGKVQHCRIHSRQDAGTPKFFLTDNLVFDSLYDLITHYQQVPLRCNEFEMRLSEPVPQTNAHESKEWYHASLTRAQAEHMLMRVPRDGAFLVRKRNEPNSYAISFRAEGKIKHCRVQQEGQTVMLGNSEFDSLVDLISYYEKHPLYRKMKLRYPINEEALEKIGTAEPDYGALYEGRNPGFYVEANPMPTFKCAVKALFDYKAQREDELTFIKSAIIQNVEKQEGGWWRGDYGGKKQLWFPSNYVEEMVNPVALEPEREHLDENSPLGDLLRGVLDVPACQIAIRPEGKNNRLFVFSISMASVAHWSLDVAADSQEELQDWVKKIREVAQTADARLTEGKIMERRKKIALELSELVVYCRPVPFDEEKIGTERACYRDMSSFPETKAEKYVNKAKGKKFLQYNRLQLSRIYPKGQRLDSSNYDPLPMWICGSQLVALNFQTPDKPMQMNQALFMTGRHCGYVLQPSTMRDEAFDPFDKSSLRGLEPCAISIEVLGARHLPKNGRGIVCPFVEIEVAGAEYDSTKQKTEFVVDNGLNPVWPAKPFHFQISNPEFAFLRFVVYEEDMFSDQNFLAQATFPVKGLKTGYRAVPLKNNYSEDLELASLLIKIDIFPAKENGDLSPFSGTSLRERGSDASGQLFHGRAREGSFESRYQQPFEDFRISQEHLADHFDSRERRAPRRTRVNGDNRL

Experiments:
[1] = molecular target: intracellular region of CD95 (amino acids 175–319) fused to F2 (human); test: split reporter; Renilla luciferase-based protein fragment complementation assay (RLuc-PCA): fragments F1 and F2 fused to PLCγ1 and CD95 domains, co-transfected in HEK cells, luminescence
[2] = molecular target: CD95^1–175 (GFP-fused) (human); test: co-IP; HEK cells transiently co-transfected with GFP-fused CD95 constructs and wild-type PLCγ1, stimulated with CD95L (100 ng/mL); CD95 protein complex immunoprecipitated from lysates, immunoblotting
[3] = molecular target: CD95^1–210 (GFP-fused) (human); test: as above

Row | Binder | binding [1] | binding [2] | binding [3]
1 | B1 | binds | – | –
2 | B2 | – | no binding | binds
